In PMC7140707:
These are yes or no findings as the source states them, for the method shown. In cells and extracts the contact can be indirect. Here binding means that the protein was enriched with, or labelled near, the bait; the list need not be complete. Tags and fused reporters may be left off the sequences shown.

T1: His6-Gis1 (yeast (S. cerevisiae)) (UniProt Q03833)
T1 sequence: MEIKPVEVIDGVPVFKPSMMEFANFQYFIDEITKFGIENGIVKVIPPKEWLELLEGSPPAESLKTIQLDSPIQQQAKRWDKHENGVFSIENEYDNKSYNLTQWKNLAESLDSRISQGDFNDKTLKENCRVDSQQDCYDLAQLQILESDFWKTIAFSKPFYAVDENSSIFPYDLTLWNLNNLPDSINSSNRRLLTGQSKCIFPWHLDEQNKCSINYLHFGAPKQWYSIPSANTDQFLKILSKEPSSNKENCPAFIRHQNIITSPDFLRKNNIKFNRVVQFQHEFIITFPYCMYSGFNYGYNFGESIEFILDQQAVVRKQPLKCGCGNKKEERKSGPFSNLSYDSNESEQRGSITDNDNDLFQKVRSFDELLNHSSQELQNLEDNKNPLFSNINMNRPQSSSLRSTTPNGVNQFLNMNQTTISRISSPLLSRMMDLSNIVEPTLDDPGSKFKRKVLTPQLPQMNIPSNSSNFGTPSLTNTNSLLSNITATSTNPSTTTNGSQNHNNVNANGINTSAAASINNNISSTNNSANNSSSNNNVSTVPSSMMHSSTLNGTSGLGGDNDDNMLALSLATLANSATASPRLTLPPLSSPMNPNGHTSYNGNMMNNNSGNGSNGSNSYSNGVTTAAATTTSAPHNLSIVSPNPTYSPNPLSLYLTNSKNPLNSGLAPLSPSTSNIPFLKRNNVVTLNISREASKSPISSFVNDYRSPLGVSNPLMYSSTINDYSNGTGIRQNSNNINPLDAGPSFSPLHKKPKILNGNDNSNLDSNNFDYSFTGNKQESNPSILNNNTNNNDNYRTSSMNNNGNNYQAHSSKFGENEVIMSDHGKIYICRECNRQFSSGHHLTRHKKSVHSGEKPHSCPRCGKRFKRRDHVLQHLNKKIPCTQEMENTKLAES

B1: PSP2 (protein, UniProt P50109 1-593)
chain: MGTNNTSNNNGTTKKMSLEEFLGNDTLGESVWDEEDINLDAISNTTNIDILKQTKAGEHQRDGHQQHPHGGHGPMNRSRFSNAGPFGGGSMGDFANHHHPLQHQQGPPYIVKFSDLPPRFSNFDIEDLFQAKFTKFIKFKLFWEINKNPSISTLKSGSIFDQNFKRDSKVAFVELYTSRDMDKILNYWTTPLKEIYHITTAPAEFEDFKDYSTKVKLLTDPKDDAGKPFITKTQRSKSNPFGSAKPVDTQSKILDIEEKMENLHVEDTTTLRASLIPSSDSMATTATGSKITILKKQTPTEEESHSATPTPKPLSYSEVVERSVVNETSKKGTPLSKLDSPALELQSKPDKSDEFKGGDEQGFEKGGDDKAQLDVSNDKDKGSETDVDKQFTFKNVEREHSMSRTKYNGNHNNNNGNFRGSNRYRGGPNGSSYKGGHNNRGNRGGYRGGSSYNNNNNNTNDNNNNNNNSSSNNNNGSRYHDRQNNEEGLTSDSSLDASGNKKNDFTNSTSNTQQYSIFKPASGFLGQGNNDSIRNNGRGNYNSSGMNGGSRGRGFGRGRGFGRGAYNNRGSRGGRGSSGNYSNYNNRTTDMPL
B2: PTC4 (protein, UniProt P38089 1-393)
chain: MGQLLSHPLTEKTIEYNEYKNNQASTGIVPRFYNCVGSMQGYRLTQEDAHLIRNENSVVYVRFFNPFIDKYETLSLNVFAVFDGHGGDDCSKFLSGGRHHRDGNGSSNGNGEPNAGLIKWIAYSFENHHYTSTTNNDSSKFKRSFNTLEGLVSQIFKDAFILQDEELYRHFANSSCGSTAVVACIINEESLYVANCGDSRCILSSKSNGIKTMSFDHKPQHIGELIRINDNGGTVSLGRVGGVLALSRAFSDFQFKRGVTYPHRRTKLTNITQNLTYGTPPQEAQVTVEPDVLMHKIDYSKDEFLVLACDGIWDIYNNKQLIHFIKYHLVSGTKLDTIITKLLDHGIAQANSNTGVGFDNMTAIIVVLNRKGETLQDWFNKMKTRLERERGLV
B3: RPS18A (protein, UniProt P0CX55 1-146)
chain: MSLVVQEQGSFQHILRLLNTNVDGNIKIVYALTTIKGVGRRYSNLVCKKADVDLHKRAGELTQEELERIVQIMQNPTHYKIPAWFLNRQNDITDGKDYHTLANNVESKLRDDLERLKKIRAHRGIRHFWGLRVRGQHTKTTGRRRA
B4: SIP1 (protein, UniProt P32578 1-815)
chain: MGNSPSTQDPSHSTKKEHGHHFHDAFNKDRQGSITSQLFNNRKSTHKRRASHTSEHNGAIPPRMQLLASHDPSTDCDGRMSSDTTIDKGPSHLFKKDYSLSSAADVNDTTLANLTLSDDHDVGAPEEQVKSPSFLSPGPSMATVKRTKSDLDDLSTLNYTMVDETTENERNDKPHHERHRSSIIALKKNLLESSATASPSPTRSSSVHSASLPALTKTDSIDIPVRQPYSKKPSIHAYQYQYLNNDETFSENSQMDKEGNSDSVDAEAGVLQSEDMVLNQSLLQNALKKDMQRLSRVNSSNSMYTAERISHANNNGNIENNTRNKGNAGGSNDDFTAPISATAKMMMKLYGDKTLMERDLNKHHNKTKKAQNKKIRSVSNSRRSSFASLHSLQSRKSILTNGLNLQPLHPLHPIINDNESQYSAPQHREISHHSNSMSSMSSISSTNSTENTLVVLKWKDDGTVAATTEVFIVSTDIASALKEQRELTLDENASLDSEKQLNPRIRMVYDDVHKEWFVPDLFLPAGIYRLQFSINGILTHSNFLPTATDSEGNFVNWFEVLPGYHTIEPFRNEADIDSQVEPTLDEELPKRPELKRFPSSSRKSSYYSAKGVERPSTPFSDYRGLSRSSSINMRDSFVRLKASSLDLMAEVKPERLVYSNEIPNLFNIGDGSTISVKGDSDDVHPQEPPSFTHRVVDCNQDDLFATLQQGGNIDAETAEAVFLSRYPVPDLPIYLNSSYLNRILNQSNQNSESHERDEGAINHIIPHVNLNHLLTSSIRDEIISVACTTRYEGKFITQVVYAPCYYKTQKSQISN
B5: SNX41 (protein, UniProt Q04053 1-625)
chain: MDYNIFEAVHEQQSSTSDMDLSEEDNNPFVGTHHLYASGIGTTIGEARPENENSPPSSSSLPSSPAHSSSAGSSRASTSSSTSSHAVVEADAETEPFVSLSMSTTATISKFTPHDMNGTQQIQIIDAGDFKDPWGKHAIGYVILYENNKIIRRYSEFHSLRQSLTRLLPTIIIPPIPSKHSLLKYIWSPINAANDSKIISTRKKMLNSFLSNCLNIQEISNDIVFQKFLNPEFNWKDVLSSSPIIILPLNNLLAPPLSPTKPSPLHSILPIPSNSSLRNYNSIWQQHITVKSHNEISNLPTEILQNESQFTHIENLFQNYKRIITHLLKNIRSNKSHFHSLSTYFAELGAYYNAFSLENDITMPNSLRESENNSNNPMMEIISHIEKTGHSFDVIYISSEILIEKYTSILEDPINELLQFLNESFKVLNFKKLKFLQFKILERLIIEKETKLSSLTEIENQLQKINESLTRSTILTDENYKDTKAADLTFVKKDVRSLSKSSSNSSSSGHQNEIHIGASKLNYKTSTPTMNLNKLEIKQLTEQERSKQIKQLNQDLSKLKDCLSICISDMLEINNSSYNSLMHTYNHINLTIGKILKLFAASFKAWIKECLKNWKLAKLQIDEAL
B6: SPC42 (protein, UniProt P36094 1-363)
chain: MNGSPTPKRYSSKSSRLYDDYYNIPYQYSNPTPMNRDYNDVGSRINADKLVPEEYKRNTEFINKAVQQNKELNFKLREKQNEIFELKKIAETLRSKLEKYVDITKKLEDQNLNLQIKISDLEKKLSDANSTFKEMRFPKVKDPMVDDDPVSENYDQINVPKHRAPDATGNPRTTNKVSNTSDQDSRLKAIERTLSVLTNYVMRSEDGNNDRMSPLPSPLNTILPINNRLNFQEPKRYNPTVKVNPSDDDIMMYESAELKRVEEEIEELKRKILVRKKHDLRKLSLNNQLQELQSMMDGDDNIKLDNVSKHNHATHRHSSQSSRDYSPSSDACLECSNDLYEKNRVKPENNMSETFATPTPNNR
B7: TMC1 (protein, UniProt Q08422 1-150)
chain: MSDINEIEIPSRKDEIRQVTPKDPMHEIEDKSTYHAKIKKSDSGTVLGAIPLNSRSSSNSSVTSTGQSSRRVTKKTTKKKKKNACYFDTCSSAASKFIGDCNFCKGHFCSKHRLMENHACNGLTSCKEQLHQRNADKLEAEQTKAPKIQI
B8: BCK1 (protein, UniProt Q01389 1-1478)
chain: MPFLRKIAGTAHTHSRSDSNSSVKFGHQPTSSVASTKSSSKSPRATSRKSIYDDIRSQFPNLTPNSTSSQFYESTPVIEQSFNWTTDDHISAGTLENPTSFTNSSYKNDNGPSSLSDSRKSSGGNSVNSLSFDKLILSWDPTDPDEWTMHRVTSWFKFHDFPESWILFFKKHQLFGHRFIKLLAYDNFAVYEKYLPQTKTASYTRFQQLLKKTMTKNVTNSHIRQKSASKLKSSRSSSESIKSKLKNSKSQEDISNSRSTSESALSPTKSGPSKTDEKNFLHSTSTHQKTKSASSLYRRSFISLRGSSSSNASSAKSPSNIKLSIPARPHSIIESNSTLTKSASPPASPSYPSIFRRHHKSSSSESSLLNSLFGSGIGEEAPTKPNPQGHSLSSENLAKGKSKHYETNVSSPLKQSSLPTSDDKGNLWNKFKRKSQIGVPSPNTVAYVTSQETPSLKSNSSTATLTVQTADVNIPSPSSSPPPIPKTANRSLEVISTEDTPKISSTTASFKETYPDCINPDKTVPVPVNNQKYSVKNFLLDQKFYPLKKTGLNDSENKYILVTKDNVSFVPLNLKSVAKLSSFKESALTKLGINHKNVTFHMTDFDCDIGAAIPDDTLEFLKKSLFLNTSGKIYIKDQMKLQQKPKPAPLTSENNVPLKSVKSKSSMRSGTSSLIASTDDVSIVTSSSDITSFDEHASGSGRRYPQTPSYYYDRVSNTNPTEELNYWNIKEVLSHEENAPKMVFKTSPKLELNLPDKGSKLNIPTPITENESKSSFQVLRKDEGTEIDFNHRRESPYTKPELAPKREAPKPPANTSPQRTLSTSKQNKPIRLVRASTKISRSKRSKPLPPQLLSSPIEASSSSPDSLTSSYTPASTHVLIPQPYKGANDVMRRLKTDQDSTSTSPSLKMKQKVNRSNSTVSTSNSIFYSPSPLLKRGNSKRVVSSTSAADIFEENDITFADAPPMFDSDDSDDDSSSSDDIIWSKKKTAPETNNENKKDEKSDNSSTHSDEIFYDSQTQDKMERKMTFRPSPEVVYQNLEKFFPRANLDKPITEGIASPTSPKSLDSLLSPKNVASSRTEPSTPSRPVPPDSSYEFIQDGLNGKNKPLNQAKTPKRTKTIRTIAHEASLARKNSVKLKRQNTKMWGTRMVEVTENHMVSINKAKNSKGEYKEFAWMKGEMIGKGSFGAVYLCLNVTTGEMMAVKQVEVPKYSSQNEAILSTVEALRSEVSTLKDLDHLNIVQYLGFENKNNIYSLFLEYVAGGSVGSLIRMYGRFDEPLIKHLTTQVLKGLAYLHSKGILHRDMKADNLLLDQDGICKISDFGISRKSKDIYSNSDMTMRGTVFWMAPEMVDTKQGYSAKVDIWSLGCIVLEMFAGKRPWSNLEVVAAMFKIGKSKSAPPIPEDTLPLISQIGRNFLDACFEINPEKRPTANELLSHPFSEVNETFNFKSTRLAKFIKSNDKLNSSKLRITSQENKTE
B9: TOD6 (protein, UniProt P34219 1-525)
chain: MTLPKLSSVSVSSGHVSANSHGFSILSKHPHPNNLVHSHSLSHTNAKSHLPISSTSTKENSTNKEEAESLKKNNPSSWDPSDDIKLRHLKEIKNLGWKEIAHHFPNRTPNACQFRWRRLKSGNLKSNKTAVIDINKLFGVYATGDATPSAGTPSAEEAVKEEAVEDEDITAGSSAIEDSPPDFKPLVKPKYMDRKLITQRSTSTFSDHEPQHTKPRKLFVKPRSFSHSITTNTPNVKTAQQTNLSLYNTTSAKTNKAVNSNDYENIGLVPKIIIRSRRNSFIPSTQIPHSTTKTRKNSHSVISSRRSSFNMMHSRRSSFNSHAPTEPISRRASLVVSPYMSPRRLSTSQSVHYHPQHQYYLNPIASPNCKTDHANDKITHTRTFLDMQKFANKHPWSREDDEVLLNNTKDKQNHLSPLEISIVLPNNRSELEIQQRMDYLKRKGRVSGFHTNEGCKDEEEEDDIDPLHKENGINTPSQQSQNYGMLEAKHDNPKSSELSSMTSANDIRNEQDELPGINSIFKNIF

molecular target: T1, His6-Gis1 (yeast (S. cerevisiae)); assay: affinity purification with mass spectrometry; His6-Gis1 pre-bound to a Ni Sepharose 6 Fast Flow column; crude yeast extract (Δgis1 cells grown in air or under hypoxia, Δgis1Δhem1 cells at intermediate or high ALA) loaded, 4 °C, 2 h; eluted complexes separated by SDS-PAGE, bands excised, MS; only the target purified

Binder	binding
B1	binds
B2	binds
B3	binds
B4	binds
B5	binds
B6	binds
B7	binds
B8	binds
B9	binds
